Values quoted from earlier work as cited in US9199026B2, “Modular extracorporeal systems and methods for treating blood-borne diseases” (SOMERSET GROUP ENTERPRISES, INC., priority 2011, dated 2015).

Tested on: bacteria
Conditions: first line of the cell pair 'Spectrum, activity'

In the case of `O=C(O)c1cn(C2CC2)c2cc(N3CCNCC3)c(F)cc2c1=O` [Ciprofloxalin], the Spectrum is given as “Gram negative,”.
